# The other results are listed elsewhere or left out. The data scatter; read single values as rough.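 Tm was set to 64 °C where no melting was found, and many curves are irregular.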
# Amino acid sequences for entries named in this document (tags omitted). A change or cut given only in a name is not applied to a line headed by its entry.
# UniProt Q9NWV4: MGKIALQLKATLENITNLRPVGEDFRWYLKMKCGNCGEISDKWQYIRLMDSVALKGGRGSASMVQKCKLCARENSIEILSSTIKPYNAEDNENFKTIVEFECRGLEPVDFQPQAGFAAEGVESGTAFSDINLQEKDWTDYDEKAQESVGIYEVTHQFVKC
# UniProt Q9P0K1: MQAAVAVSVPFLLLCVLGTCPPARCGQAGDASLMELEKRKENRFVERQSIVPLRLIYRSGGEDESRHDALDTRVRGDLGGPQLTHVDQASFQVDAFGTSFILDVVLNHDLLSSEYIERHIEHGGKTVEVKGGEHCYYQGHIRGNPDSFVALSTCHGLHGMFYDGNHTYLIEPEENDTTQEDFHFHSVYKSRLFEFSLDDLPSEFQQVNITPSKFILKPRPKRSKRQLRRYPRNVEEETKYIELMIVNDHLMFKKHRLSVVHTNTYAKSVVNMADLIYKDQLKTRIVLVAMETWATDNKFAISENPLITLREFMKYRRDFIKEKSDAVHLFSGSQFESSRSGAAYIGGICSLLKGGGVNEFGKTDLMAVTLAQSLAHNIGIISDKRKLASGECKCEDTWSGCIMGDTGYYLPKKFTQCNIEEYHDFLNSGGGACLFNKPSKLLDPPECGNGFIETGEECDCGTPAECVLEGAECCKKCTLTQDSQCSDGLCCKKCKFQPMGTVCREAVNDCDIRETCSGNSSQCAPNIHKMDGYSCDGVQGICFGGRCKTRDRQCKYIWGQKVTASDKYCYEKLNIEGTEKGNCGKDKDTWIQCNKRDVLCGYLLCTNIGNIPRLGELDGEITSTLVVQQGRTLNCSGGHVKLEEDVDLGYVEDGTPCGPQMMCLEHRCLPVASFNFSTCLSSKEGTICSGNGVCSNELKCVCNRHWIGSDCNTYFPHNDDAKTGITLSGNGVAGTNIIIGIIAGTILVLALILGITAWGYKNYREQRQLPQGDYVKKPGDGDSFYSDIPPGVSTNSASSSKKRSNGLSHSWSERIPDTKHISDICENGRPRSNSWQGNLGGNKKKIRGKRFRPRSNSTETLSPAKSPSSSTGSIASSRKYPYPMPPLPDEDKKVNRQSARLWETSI
# UniProt Q9NW64: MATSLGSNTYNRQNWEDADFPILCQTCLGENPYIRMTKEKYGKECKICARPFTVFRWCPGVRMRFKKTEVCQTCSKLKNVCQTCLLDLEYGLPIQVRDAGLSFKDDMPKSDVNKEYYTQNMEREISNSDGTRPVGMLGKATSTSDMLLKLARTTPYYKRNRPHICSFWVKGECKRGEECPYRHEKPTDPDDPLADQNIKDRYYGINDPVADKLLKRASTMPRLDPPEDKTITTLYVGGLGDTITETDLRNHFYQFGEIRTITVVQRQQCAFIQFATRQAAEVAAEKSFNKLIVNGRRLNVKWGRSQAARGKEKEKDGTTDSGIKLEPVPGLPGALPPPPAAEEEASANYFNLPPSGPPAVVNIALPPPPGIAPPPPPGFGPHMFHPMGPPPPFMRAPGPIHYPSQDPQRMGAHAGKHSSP
# UniProt Q9P265: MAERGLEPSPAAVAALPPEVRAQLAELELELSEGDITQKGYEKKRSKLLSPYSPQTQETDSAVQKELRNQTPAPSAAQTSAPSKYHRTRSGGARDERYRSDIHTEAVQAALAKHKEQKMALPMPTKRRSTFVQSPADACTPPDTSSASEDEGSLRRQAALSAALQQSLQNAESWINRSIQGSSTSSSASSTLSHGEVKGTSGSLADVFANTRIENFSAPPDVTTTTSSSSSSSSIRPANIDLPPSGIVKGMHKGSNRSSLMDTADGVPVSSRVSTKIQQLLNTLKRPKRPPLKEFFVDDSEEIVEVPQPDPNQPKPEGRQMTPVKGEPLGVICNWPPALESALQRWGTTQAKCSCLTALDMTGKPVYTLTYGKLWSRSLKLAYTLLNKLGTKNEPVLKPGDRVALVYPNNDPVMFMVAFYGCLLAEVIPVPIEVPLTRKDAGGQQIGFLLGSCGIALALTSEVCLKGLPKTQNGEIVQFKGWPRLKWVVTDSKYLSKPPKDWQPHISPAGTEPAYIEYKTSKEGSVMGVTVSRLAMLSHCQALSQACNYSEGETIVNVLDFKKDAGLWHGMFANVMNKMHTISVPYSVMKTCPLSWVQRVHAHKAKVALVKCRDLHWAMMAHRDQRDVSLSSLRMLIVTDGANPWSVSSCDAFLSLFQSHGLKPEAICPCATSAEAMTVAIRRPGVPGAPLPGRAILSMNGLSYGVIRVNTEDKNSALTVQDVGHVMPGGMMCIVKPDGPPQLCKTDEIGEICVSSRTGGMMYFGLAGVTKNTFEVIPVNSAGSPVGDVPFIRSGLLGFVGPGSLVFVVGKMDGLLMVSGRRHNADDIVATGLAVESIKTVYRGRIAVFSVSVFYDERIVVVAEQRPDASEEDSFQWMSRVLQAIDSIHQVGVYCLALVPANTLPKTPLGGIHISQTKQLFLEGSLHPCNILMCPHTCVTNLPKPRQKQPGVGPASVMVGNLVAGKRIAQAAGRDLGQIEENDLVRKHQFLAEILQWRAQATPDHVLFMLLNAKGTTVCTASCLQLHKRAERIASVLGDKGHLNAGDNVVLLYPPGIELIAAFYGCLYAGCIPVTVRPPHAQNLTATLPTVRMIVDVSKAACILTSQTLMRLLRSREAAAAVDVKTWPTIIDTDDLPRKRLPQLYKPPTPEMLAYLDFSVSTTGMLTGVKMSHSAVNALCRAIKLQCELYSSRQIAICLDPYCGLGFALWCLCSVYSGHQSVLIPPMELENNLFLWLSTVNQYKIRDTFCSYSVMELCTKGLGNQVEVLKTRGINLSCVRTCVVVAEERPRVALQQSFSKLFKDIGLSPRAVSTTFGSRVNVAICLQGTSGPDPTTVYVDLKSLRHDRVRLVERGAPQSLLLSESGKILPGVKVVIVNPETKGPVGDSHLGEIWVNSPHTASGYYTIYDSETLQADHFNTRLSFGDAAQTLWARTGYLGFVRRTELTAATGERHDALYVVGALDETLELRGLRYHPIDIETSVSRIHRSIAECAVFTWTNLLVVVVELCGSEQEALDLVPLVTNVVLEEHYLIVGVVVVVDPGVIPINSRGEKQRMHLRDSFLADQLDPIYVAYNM
# UniProt Q9P2K6: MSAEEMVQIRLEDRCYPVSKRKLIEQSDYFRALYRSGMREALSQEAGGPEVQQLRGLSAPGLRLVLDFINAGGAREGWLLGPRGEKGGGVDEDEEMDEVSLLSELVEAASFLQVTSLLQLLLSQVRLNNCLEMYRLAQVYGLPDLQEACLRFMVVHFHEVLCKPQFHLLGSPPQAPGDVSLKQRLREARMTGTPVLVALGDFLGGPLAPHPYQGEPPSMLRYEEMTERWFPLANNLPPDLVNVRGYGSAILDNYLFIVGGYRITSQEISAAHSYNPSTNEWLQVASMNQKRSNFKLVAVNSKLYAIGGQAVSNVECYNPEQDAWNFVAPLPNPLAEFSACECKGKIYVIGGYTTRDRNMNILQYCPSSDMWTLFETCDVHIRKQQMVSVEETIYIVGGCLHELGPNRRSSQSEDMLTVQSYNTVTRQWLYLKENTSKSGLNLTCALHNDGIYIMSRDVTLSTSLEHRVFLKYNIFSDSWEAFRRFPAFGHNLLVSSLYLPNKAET
# UniProt Q9P0J0, whole entry: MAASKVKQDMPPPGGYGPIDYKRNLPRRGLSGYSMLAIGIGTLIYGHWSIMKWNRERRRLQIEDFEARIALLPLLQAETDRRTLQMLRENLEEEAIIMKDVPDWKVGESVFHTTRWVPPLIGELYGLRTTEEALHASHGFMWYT
# UniProt Q9P2Y5: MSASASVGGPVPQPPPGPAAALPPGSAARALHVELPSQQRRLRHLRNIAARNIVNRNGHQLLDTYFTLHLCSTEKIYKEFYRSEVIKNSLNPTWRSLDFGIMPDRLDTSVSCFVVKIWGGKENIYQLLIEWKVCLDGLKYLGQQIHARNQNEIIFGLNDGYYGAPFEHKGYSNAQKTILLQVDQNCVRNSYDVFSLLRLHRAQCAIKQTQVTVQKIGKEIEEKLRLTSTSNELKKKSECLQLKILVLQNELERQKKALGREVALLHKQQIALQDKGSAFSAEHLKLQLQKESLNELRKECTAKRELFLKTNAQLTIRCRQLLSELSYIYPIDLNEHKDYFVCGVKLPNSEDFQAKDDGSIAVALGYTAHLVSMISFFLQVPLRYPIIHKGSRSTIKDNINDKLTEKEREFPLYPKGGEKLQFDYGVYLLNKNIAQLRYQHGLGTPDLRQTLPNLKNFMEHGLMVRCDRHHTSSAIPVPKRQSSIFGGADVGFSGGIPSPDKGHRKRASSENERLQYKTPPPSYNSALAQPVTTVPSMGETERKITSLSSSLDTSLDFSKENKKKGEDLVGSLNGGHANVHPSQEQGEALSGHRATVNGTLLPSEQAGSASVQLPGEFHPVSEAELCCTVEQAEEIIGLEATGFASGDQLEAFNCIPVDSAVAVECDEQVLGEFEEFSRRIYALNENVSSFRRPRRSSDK
# UniProt Q9NY33: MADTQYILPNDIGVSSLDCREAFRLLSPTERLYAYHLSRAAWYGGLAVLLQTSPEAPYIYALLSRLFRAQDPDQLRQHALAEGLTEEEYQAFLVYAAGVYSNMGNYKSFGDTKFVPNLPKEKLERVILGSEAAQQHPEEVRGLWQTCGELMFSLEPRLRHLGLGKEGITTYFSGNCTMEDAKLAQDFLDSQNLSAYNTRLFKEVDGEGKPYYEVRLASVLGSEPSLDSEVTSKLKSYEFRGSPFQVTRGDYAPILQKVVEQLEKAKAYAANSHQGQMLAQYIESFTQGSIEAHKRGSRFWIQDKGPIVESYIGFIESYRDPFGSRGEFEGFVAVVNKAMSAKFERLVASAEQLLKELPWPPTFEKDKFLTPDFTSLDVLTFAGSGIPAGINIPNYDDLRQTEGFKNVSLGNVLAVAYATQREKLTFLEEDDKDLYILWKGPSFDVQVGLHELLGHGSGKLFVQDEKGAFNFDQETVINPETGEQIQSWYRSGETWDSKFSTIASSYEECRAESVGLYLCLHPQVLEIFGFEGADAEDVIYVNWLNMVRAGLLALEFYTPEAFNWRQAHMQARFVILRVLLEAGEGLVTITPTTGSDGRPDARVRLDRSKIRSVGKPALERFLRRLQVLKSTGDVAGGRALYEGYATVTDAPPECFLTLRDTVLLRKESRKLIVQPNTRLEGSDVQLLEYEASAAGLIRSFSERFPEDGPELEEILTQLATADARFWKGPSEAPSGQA
# UniProt Q9NW68: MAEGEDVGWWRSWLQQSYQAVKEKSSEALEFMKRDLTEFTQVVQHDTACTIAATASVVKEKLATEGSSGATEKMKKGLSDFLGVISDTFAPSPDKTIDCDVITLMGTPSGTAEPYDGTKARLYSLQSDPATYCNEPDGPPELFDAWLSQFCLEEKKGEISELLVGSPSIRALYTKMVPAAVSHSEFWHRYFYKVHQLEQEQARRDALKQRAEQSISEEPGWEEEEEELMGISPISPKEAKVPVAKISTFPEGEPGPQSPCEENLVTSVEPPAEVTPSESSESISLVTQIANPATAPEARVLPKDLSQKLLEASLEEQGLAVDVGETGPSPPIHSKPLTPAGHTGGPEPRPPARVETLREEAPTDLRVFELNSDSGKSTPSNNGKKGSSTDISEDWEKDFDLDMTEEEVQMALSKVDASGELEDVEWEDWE
# UniProt Q9UBF2: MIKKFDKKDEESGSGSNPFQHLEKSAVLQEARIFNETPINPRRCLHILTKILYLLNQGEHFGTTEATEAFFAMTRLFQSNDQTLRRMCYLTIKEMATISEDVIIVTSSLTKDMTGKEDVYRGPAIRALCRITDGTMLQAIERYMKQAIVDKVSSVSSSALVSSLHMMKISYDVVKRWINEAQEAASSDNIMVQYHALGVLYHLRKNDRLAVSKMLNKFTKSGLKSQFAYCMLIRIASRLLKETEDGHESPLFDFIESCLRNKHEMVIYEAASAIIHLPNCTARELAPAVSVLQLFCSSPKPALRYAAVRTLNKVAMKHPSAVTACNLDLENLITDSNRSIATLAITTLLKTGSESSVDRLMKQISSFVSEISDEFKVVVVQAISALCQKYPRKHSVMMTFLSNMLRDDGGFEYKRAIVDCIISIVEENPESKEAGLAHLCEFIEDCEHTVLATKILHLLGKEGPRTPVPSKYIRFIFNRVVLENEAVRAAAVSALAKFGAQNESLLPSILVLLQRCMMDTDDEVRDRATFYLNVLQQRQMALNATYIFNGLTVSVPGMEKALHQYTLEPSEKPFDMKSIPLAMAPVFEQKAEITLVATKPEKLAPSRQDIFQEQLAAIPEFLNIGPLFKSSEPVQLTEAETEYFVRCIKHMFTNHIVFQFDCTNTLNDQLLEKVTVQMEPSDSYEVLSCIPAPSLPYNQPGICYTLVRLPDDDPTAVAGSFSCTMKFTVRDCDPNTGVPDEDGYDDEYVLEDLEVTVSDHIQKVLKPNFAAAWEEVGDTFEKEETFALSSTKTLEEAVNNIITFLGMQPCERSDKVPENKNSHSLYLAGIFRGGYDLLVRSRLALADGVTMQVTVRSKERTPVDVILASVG
# Compound: CCc1cnccc1C(=O)Nc1cc2c(cc1F)NC(=O)CC2
# Assay: melting temperature shift (DMSO Tm minus MBE1-treated Tm) in cellular thermal proteome profiling; higher = less thermal stabilization by MBE1 (negative = stabilized by MBE1)
# Settings: A375; MBE1 concentration: 100 nM
row,Target,melting temperature shift [°C]
1,C1ORF123 (UniProt Q9NWV4),0.194
2,UniProt Q9P0K1,0.704
3,MYOF (UniProt Q9NZM1),-0.617
4,ERAP1 (UniProt Q9NZ08),-0.979
5,ZMYM2 (UniProt Q9UBW7),-0.41
6,GLTP (UniProt Q9NZD2),0.362
7,ASF1B (UniProt Q9NVP2),-0.852
8,MRPL27 (UniProt Q9P0M9),0.0611
9,RAI14 (UniProt Q9P0K7),-0.654
10,RBM22 (UniProt Q9NW64),0.434
11,IMPAD1 (UniProt Q9NX62),-2.2
12,NDUFAF4 (UniProt Q9P032),-0.671
13,UniProt Q9NXF7,-0.884
14,UniProt Q9P289,0.736
15,ARHGEF12 (UniProt Q9NZN5),-1.51
16,ASH2L (UniProt Q9UBL3),0.818
17,SLTM (UniProt Q9NWH9),-1.43
18,TRMT1 (UniProt Q9NXH9),-1.27
19,DIP2B (UniProt Q9P265),-0.349

row,Target,melting temperature shift [°C]
1,TJP2 (UniProt Q9UDY2),-0.626
2,KLHL42 (UniProt Q9P2K6),-0.0855
3,HEATR5B (UniProt Q9P2D3),1.2
4,UniProt Q9P0J0,-0.171
5,METTL1 (UniProt Q9UBP6),-0.436
6,UniProt Q9P2M7,-1.75
7,UVRAG (UniProt Q9P2Y5),-0.43
8,C9ORF78 (UniProt Q9NZ63),-1.62
9,UniProt Q9NYP3,-0.0122
10,DPP3 (UniProt Q9NY33),-0.49
11,BSDC1 (UniProt Q9NW68),-1.09
12,UniProt Q9P2P1,-0.0313
13,UniProt Q9P2S2,0.0335
14,NUDT4 (UniProt Q9NZJ9),0.556
15,COPG2 (UniProt Q9UBF2),-0.57
16,MARCH5 (UniProt Q9NX47),0.374
17,VPS29 (UniProt Q9UBQ0),-1.52
18,SDAD1 (UniProt Q9NVU7),-0.761
19,UniProt Q9UBS9,0.116

# Same assay, conditions: A375; MBE1 concentration: 1 uM
row,Target,melting temperature shift [°C]
1,C1ORF123 (UniProt Q9NWV4),0.161
2,UniProt Q9P0K1,-4.39
3,MYOF (UniProt Q9NZM1),0.0738
4,ERAP1 (UniProt Q9NZ08),-0.51
5,ZMYM2 (UniProt Q9UBW7),-0.442
6,GLTP (UniProt Q9NZD2),0.49
7,ASF1B (UniProt Q9NVP2),0.273
8,MRPL27 (UniProt Q9P0M9),-0.946
9,RAI14 (UniProt Q9P0K7),-0.343
10,RBM22 (UniProt Q9NW64),-0.263
11,IMPAD1 (UniProt Q9NX62),-1.6
12,NDUFAF4 (UniProt Q9P032),0.531
13,UniProt Q9NXF7,-0.783
14,UniProt Q9P289,-0.0916
15,ARHGEF12 (UniProt Q9NZN5),-1.28
16,ASH2L (UniProt Q9UBL3),0.208
17,SLTM (UniProt Q9NWH9),-0.849
18,TRMT1 (UniProt Q9NXH9),-0.636
19,DIP2B (UniProt Q9P265),-0.409

row,Target,melting temperature shift [°C]
1,TJP2 (UniProt Q9UDY2),-1.03
2,KLHL42 (UniProt Q9P2K6),0.605
3,HEATR5B (UniProt Q9P2D3),0.0305
4,UniProt Q9P0J0,-0.294
5,METTL1 (UniProt Q9UBP6),0.423
6,UniProt Q9P2M7,-0.624
7,UVRAG (UniProt Q9P2Y5),0.263
8,C9ORF78 (UniProt Q9NZ63),1.76
9,UniProt Q9NYP3,-0.122
10,DPP3 (UniProt Q9NY33),0.651
11,BSDC1 (UniProt Q9NW68),-0.174
12,UniProt Q9P2P1,0.318
13,UniProt Q9P2S2,1.76
14,NUDT4 (UniProt Q9NZJ9),-0.336
15,COPG2 (UniProt Q9UBF2),0.0733
16,MARCH5 (UniProt Q9NX47),-0.653
17,VPS29 (UniProt Q9UBQ0),0.318
18,SDAD1 (UniProt Q9NVU7),0.259
19,UniProt Q9UBS9,0.765

# Reference: the supplement of paper PMC12595434, “Development of retinoid nuclear receptor pathway antagonists through targeting aldehyde dehydrogenase 1A3” (iScience, 2025)
